pIC50: −log10 of the molar value. Structures were worked out from names or drawings and are uncertain.
Target: Full length human recombinant PIKFYVE (Homo sapiens, UniProt Q9Y2I7)
Experiment: Inhibition of PIKfyve (microfluidic electrophoresis kinase assay, PI3P/PS substrate)
Details: read-out: PIKfyve IC50, 12 concentrations, tested form: HCl

Sequences of proteins named here, by UniProt entry; tags and fusion partners are left off.
UniProt Q9Y2I7, whole entry: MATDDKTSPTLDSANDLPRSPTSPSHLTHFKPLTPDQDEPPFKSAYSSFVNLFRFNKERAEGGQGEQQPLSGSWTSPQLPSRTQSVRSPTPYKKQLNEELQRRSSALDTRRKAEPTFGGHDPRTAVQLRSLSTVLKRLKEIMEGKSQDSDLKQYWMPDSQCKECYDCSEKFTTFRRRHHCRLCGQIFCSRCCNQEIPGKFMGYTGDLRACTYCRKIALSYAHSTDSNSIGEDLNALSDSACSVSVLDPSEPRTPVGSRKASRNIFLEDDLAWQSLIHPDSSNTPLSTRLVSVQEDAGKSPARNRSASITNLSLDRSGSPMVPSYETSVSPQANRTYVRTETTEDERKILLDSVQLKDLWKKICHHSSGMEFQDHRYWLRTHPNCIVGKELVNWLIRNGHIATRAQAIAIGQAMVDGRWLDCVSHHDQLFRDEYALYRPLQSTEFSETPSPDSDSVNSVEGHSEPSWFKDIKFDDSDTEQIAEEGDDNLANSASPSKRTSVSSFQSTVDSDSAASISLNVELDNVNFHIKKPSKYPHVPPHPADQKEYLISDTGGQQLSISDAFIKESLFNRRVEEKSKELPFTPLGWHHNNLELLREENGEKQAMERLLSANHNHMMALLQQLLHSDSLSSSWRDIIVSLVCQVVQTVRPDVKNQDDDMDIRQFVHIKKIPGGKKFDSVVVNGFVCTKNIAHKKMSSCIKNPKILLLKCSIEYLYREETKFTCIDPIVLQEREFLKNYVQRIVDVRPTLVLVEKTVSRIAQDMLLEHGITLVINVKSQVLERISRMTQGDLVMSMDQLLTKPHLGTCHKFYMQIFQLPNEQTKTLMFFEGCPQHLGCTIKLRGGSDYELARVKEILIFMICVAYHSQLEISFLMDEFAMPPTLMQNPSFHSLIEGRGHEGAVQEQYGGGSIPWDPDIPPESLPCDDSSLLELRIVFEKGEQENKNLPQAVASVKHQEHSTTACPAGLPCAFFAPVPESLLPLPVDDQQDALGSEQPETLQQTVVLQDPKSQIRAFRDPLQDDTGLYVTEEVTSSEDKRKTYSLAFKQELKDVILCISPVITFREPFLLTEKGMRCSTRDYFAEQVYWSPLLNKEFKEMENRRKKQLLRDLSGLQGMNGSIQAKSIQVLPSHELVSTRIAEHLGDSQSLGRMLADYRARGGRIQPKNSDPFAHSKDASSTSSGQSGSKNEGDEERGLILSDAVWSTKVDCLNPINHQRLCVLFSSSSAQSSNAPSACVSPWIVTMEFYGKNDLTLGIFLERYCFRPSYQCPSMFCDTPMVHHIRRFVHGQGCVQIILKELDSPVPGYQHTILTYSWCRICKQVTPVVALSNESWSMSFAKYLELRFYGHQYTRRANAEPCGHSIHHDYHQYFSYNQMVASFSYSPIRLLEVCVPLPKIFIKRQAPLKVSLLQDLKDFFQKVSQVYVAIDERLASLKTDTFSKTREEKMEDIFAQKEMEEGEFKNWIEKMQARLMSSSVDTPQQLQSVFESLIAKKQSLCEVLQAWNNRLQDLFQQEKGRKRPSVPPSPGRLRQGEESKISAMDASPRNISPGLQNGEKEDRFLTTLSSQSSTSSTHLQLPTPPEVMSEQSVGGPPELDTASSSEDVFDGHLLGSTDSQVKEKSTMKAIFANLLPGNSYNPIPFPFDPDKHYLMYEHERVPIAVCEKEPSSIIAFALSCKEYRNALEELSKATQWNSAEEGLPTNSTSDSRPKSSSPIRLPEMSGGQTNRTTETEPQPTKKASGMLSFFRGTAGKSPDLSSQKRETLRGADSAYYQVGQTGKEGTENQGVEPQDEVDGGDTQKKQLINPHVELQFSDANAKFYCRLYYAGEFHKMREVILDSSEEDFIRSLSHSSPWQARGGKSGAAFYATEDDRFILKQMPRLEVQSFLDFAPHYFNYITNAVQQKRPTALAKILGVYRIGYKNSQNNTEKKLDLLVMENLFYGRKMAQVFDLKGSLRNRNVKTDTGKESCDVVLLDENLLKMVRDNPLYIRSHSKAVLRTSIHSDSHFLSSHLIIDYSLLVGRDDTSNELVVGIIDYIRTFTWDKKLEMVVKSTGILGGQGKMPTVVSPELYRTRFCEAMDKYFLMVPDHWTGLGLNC

C[C@@H](NC(=O)c1cc2nc(Nc3cc(-c4ccccc4)[nH]n3)nc(N3CCOCC3)c2o1)C1CC1
pIC50: 9.15

From US20230146395A1, “Substituted Pyrimidines and Uses Thereof” (Verge Analytics, Inc., priority 2020, published 2023)
